Binding data for two molecules are collected here from article PMC7969951.

This test deals with T1, FLAG-tagged USP39 (UniProt Q53GS9).
T1 sequence: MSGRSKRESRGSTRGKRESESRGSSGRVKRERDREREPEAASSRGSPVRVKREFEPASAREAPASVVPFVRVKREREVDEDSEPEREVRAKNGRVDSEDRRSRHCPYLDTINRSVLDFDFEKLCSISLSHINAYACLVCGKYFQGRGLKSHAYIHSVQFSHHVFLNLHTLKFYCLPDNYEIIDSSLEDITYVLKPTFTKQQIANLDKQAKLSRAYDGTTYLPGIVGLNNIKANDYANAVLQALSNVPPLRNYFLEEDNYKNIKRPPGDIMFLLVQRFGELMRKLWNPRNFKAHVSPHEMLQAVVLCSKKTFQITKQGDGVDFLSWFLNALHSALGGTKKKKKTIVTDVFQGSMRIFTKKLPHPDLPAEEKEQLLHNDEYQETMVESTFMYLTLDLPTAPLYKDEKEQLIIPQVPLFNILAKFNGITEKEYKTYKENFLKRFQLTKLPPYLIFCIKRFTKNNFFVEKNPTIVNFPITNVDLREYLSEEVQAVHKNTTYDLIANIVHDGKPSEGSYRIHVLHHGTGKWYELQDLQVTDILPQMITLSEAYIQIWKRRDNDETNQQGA
As to the kind of experiment: co-IP; FLAG-tagged USP39 expressed in A2780 cells; whole-cell extract precipitated with anti-FLAG antibody and Protein A/G beads, western blot; IgG as negative control.

Results are given in words; binding and its absence hold for the method and conditions named. Binding seen in cells or lysates may run through a third protein. Some entries that bind do so weakly or less than the wild type. Tags and fused reporters may be left off the sequences shown.

B1: SART1 (protein, UniProt O43290 1-800)
chain: MGSSKKHRGEKEAAGTTAAAGTGGATEQPPRHREHKKHKHRSGGSGGSGGERRKRSRERGGERGSGRRGAEAEARSSTHGRERSQAEPSERRVKREKRDDGYEAAASSKTSSGDASSLSIEETNKLRAKLGLKPLEVNAIKKEAGTKEEPVTADVINPMALRQREELREKLAAAKEKRLLNQKLGKIKTLGEDDPWLDDTAAWIERSRQLQKEKDLAEKRAKLLEEMDQEFGVSTLVEEEFGQRRQDLYSARDLQGLTVEHAIDSFREGETMILTLKDKGVLQEEEDVLVNVNLVDKERAEKNVELRKKKPDYLPYAEDESVDDLAQQKPRSILSKYDEELEGERPHSFRLEQGGTADGLRERELEEIRAKLRLQAQSLSTVGPRLASEYLTPEEMVTFKKTKRRVKKIRKKEKEVVVRADDLLPLGDQTQDGDFGSRLRGRGRRRVSEVEEEKEPVPQPLPSDDTRVENMDISDEEEGGAPPPGSPQVLEEDEAELELQKQLEKGRRLRQLQQLQQLRDSGEKVVEIVKKLESRQRGWEEDEDPERKGAIVFNATSEFCRTLGEIPTYGLAGNREEQEELMDFERDEERSANGGSESDGEENIGWSTVNLDEEKQQQDFSASSTTILDEEPIVNRGLAAALLLCQNKGLLETTVQKVARVKAPNKSLPSAVYCIEDKMAIDDKYSRREEYRGFTQDFKEKDGYKPDVKIEYVDETGRKLTPKEAFRQLSHRFHGKGSGKMKTERRMKKLDEEALLKKMSSSDTPLGTVALLQEKQKAQKTPYIVLSGSGKSMNANTITK
Turning to B1, the binding result is recorded as “binds”.

B2: PRPF3 (protein, UniProt O43395 1-683)
chain: MALSKRELDELKPWIEKTVKRVLGFSEPTVVTAALNCVGKGMDKKKAADHLKPFLDDSTLRFVDKLFEAVEEGRSSRHSKSSSDRSRKRELKEVFGDDSEISKESSGVKKRRIPRFEEVEEEPEVIPGPPSESPGMLTKLQIKQMMEAATRQIEERKKQLSFISPPTPQPKTPSSSQPERLPIGNTIQPSQAATFMNDAIEKARKAAELQARIQAQLALKPGLIGNANMVGLANLHAMGIAPPKVELKDQTKPTPLILDEQGRTVDATGKEIELTHRMPTLKANIRAVKREQFKQQLKEKPSEDMESNTFFDPRVSIAPSQRQRRTFKFHDKGKFEKIAQRLRTKAQLEKLQAEISQAARKTGIHTSTRLALIAPKKELKEGDIPEIEWWDSYIIPNGFDLTEENPKREDYFGITNLVEHPAQLNPPVDNDTPVTLGVYLTKKEQKKLRRQTRREAQKELQEKVRLGLMPPPEPKVRISNLMRVLGTEAVQDPTKVEAHVRAQMAKRQKAHEEANAARKLTAEQRKVKKIKKLKEDISQGVHISVYRVRNLSNPAKKFKIEANAGQLYLTGVVVLHKDVNVVVVEGGPKAQKKFKRLMLHRIKWDEQTSNTKGDDDEESDEEAVKKTNKCVLVWEGTAKDRSFGEMKFKQCPTENMAREHFKKHGAEHYWDLALSESVLESTD
As for B2, the binding entry is “binds”.
